The chains behind the UniProt entries cited, without tags or fusion partners. Where a name states a change or a piece, a line headed by the entry shows the natural chain unless it says otherwise.
UniProt Q9GYM9: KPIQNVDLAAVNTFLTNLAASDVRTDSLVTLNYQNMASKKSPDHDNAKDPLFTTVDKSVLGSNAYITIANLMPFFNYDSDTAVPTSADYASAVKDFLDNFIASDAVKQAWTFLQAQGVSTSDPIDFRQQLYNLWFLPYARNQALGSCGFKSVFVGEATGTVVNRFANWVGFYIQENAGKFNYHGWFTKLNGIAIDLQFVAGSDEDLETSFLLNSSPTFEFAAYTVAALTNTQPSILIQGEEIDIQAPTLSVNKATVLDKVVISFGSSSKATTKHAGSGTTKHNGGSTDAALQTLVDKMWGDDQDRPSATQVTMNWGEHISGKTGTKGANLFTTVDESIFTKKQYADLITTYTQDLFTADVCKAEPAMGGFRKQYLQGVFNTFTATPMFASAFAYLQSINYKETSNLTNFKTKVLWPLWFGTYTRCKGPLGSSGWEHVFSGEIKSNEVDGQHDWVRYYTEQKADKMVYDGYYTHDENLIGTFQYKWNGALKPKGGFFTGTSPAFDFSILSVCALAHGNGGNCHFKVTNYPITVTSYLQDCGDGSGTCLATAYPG
UniProt P16356: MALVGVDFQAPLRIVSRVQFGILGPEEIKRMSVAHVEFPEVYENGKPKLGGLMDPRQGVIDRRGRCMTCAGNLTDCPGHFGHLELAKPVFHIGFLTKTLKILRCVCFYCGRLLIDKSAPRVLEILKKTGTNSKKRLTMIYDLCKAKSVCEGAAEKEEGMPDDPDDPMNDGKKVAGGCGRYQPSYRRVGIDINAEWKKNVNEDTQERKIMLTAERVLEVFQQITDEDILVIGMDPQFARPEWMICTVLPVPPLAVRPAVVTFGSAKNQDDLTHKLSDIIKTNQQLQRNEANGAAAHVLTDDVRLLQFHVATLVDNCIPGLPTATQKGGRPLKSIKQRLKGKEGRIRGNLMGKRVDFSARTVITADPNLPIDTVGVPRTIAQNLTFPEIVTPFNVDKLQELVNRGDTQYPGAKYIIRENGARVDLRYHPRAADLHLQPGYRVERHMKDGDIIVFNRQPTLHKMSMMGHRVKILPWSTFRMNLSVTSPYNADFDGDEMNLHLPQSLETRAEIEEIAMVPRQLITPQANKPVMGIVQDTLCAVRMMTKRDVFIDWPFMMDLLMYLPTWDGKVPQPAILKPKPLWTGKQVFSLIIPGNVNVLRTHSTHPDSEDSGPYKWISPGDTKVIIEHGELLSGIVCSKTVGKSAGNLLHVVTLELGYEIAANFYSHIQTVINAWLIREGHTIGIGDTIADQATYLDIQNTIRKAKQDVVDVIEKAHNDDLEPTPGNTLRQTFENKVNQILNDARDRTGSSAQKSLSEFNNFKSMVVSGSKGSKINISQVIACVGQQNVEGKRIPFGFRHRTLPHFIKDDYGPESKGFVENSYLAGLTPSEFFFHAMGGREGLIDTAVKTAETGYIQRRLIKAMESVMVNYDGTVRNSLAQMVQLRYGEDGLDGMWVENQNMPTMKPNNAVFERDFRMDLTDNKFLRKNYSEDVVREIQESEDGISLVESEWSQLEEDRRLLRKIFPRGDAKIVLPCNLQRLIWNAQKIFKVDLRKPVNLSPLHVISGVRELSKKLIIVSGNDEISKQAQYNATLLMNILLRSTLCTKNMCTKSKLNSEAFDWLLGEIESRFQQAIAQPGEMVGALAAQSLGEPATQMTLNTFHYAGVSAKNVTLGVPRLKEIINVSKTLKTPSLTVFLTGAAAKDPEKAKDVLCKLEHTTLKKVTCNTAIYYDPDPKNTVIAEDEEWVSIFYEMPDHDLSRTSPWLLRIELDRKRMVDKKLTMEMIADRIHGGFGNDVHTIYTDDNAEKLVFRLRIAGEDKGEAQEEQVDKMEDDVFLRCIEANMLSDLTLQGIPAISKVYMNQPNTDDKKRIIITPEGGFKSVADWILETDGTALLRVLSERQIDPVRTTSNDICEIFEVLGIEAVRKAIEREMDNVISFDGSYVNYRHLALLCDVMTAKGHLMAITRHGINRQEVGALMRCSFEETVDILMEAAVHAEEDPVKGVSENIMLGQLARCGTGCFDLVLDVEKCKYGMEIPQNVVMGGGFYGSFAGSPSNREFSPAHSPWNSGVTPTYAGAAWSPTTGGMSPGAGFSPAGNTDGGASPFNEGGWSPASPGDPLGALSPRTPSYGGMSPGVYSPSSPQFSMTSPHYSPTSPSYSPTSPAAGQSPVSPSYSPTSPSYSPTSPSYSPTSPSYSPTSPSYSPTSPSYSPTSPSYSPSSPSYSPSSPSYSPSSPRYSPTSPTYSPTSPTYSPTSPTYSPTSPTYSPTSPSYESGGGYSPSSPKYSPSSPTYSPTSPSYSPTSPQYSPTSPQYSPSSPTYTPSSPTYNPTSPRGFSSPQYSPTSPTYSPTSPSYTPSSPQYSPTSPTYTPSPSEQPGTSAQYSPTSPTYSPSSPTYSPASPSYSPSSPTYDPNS
UniProt Q10578: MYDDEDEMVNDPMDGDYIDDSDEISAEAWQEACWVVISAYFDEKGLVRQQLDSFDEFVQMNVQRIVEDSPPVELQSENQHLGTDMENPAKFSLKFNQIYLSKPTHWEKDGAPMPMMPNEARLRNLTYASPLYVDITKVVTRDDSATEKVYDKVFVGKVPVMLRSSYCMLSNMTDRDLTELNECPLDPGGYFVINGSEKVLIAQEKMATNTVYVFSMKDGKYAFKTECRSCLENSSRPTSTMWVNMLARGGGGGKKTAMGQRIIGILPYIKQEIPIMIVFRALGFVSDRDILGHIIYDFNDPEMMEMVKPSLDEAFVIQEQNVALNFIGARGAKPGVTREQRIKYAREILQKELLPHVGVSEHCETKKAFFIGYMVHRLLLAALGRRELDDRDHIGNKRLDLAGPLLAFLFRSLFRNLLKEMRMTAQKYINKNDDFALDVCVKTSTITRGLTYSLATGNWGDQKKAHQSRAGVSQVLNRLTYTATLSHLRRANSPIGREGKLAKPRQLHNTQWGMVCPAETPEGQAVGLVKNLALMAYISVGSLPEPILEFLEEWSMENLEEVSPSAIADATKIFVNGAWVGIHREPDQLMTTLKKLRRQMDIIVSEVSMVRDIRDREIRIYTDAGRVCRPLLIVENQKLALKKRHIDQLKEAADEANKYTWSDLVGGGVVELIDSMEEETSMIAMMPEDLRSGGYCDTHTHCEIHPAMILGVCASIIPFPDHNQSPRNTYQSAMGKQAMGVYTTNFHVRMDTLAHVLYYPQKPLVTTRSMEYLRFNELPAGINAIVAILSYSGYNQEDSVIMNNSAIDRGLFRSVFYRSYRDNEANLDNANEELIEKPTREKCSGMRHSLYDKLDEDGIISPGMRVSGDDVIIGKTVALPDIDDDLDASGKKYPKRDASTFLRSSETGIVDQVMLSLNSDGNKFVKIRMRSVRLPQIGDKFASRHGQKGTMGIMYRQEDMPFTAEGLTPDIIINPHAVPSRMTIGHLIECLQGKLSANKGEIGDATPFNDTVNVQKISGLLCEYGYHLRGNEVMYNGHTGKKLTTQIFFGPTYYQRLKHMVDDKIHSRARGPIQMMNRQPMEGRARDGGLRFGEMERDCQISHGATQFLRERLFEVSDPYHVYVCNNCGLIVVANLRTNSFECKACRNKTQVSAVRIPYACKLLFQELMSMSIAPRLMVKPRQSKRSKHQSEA

According to PMC10345090:

Tests used:
Assay in all cases: co-IP; day 1 adult worm lysate in NP-40 buffer (150 mM NaCl, 50 mM Tris HCl pH 8.0, 0.1% NP-40), without RNase A (RNase inhibitor); IP with anti-Pol II 8WG16 (AMA-1), anti-POLR2B, anti-Histone H3 or anti-GFP, Dynabeads Protein A; Western blot
[1] = target: ENDU-2::EGFP (C. elegans) (UniProt Q9GYM9)
[2] = target: AMA-1, the Pol II subunit A (C. elegans (endogenous in worms)) (UniProt P16356)
[3] = target: RPB-2 (Pol II subunit B) (C. elegans (endogenous in worms)) (UniProt Q10578)

binding [1] | binding [2] | binding [3] | Substance
binds | – | – | AMA-1, the Pol II subunit A (from UniProt P16356 1-1856)
– | binds | binds | ENDU-2::EGFP (from UniProt Q9GYM9)

Results are given in words; binding and its absence hold for the method and conditions named. In cells and extracts the contact can be indirect. Binding calls can cover weak binding; strength is not graded here.
